Drawing on article PMC5098186, “Nuclear import of dimerized ribosomal protein Rps3 in complex with its chaperone Yar1” (Scientific Reports, 2016), this text covers binding for 2 molecules.

By UniProt entry, the sequences of proteins in these tests, tags left out.
UniProt Q02821: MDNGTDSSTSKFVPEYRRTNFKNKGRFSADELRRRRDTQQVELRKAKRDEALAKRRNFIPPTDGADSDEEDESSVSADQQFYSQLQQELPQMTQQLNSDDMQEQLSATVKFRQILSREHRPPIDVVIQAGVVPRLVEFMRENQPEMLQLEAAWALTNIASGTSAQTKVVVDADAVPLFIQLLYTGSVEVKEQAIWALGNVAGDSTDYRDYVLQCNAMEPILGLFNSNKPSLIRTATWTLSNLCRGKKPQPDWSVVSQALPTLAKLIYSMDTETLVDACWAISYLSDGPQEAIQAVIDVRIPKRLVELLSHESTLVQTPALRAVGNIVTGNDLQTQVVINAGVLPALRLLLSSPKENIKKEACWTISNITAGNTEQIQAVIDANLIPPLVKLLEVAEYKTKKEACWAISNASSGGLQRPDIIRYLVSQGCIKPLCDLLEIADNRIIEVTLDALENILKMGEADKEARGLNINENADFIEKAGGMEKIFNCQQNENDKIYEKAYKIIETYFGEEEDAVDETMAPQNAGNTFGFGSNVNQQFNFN

This assay has as its target T1, Rps3-TAP (S. cerevisiae) (UniProt P05750).
T1 sequence: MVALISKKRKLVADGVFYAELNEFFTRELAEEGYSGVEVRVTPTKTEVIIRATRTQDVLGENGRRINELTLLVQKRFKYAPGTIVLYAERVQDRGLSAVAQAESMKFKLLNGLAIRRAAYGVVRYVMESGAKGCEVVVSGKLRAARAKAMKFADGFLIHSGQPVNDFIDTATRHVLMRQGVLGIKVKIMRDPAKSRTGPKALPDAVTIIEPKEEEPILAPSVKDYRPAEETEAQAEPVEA
The assay is described as follows: affinity purification with mass spectrometry; TAP purification from yeast lysate; excised gel bands of the final eluate digested with trypsin and analysed by LC-MS/MS.

These are yes or no findings as the source states them, for the method shown. Binding seen in cells or lysates may run through a third protein. A yes stands for co-enrichment or nearness to the bait. Other partners may have been found.

For Kap60-3xHA (from UniProt Q02821 1-542), the binding entry is “binds”.

B1: Kap123 (protein, UniProt P40069 1-1113)
chain: MDQQFLSQLEQTLHAITSGVGLKEATKTLQTQFYTQPTTLPALIHILQNGSDDSLKQLAGVEARKLVSKHWNAIDESTRASIKTSLLQTAFSEPKENVRHSNARVIASIGTEELDGNKWPDLVPNLIQTASGEDVQTRQTAIFILFSLLEDFTSSLSGHIDDFLALFSQTINDPSSLEIRSLSAQALNHVSALIEEQETINPVQAQKFAASIPSVVNVLDAVIKADDTMNAKLIFNCLNDFLLLDSQLTGNFIVDLIKLSLQIAVNSEIDEDVRVFALQFIISSLSYRKSKVSQSKLGPEITVAALKVACEEIDVDDELNNEDETGENEENTPSSSAIRLLAFASSELPPSQVASVIVEHIPAMLQSANVFERRAILLAISVAVTGSPDYILSQFDKIIPATINGLKDTEPIVKLAALKCIHQLTTDLQDEVAKFHEEYLPLIIDIIDSAKNIVIYNYATVALDGLLEFIAYDAIAKYLDPLMNKLFYMLESNESSKLRCAVVSAIGSAAFAAGSAFIPYFKTSVHYLEKFIQNCSQIEGMSEDDIELRANTFENISTMARAVRSDAFAEFAEPLVNSAYEAIKTDSARLRESGYAFIANLAKVYGENFAPFLKTILPEIFKTLELDEYQFNFDGDAEDLAAFADSANEEELQNKFTVNTGISYEKEVASAALSELALGTKEHFLPYVEQSLKVLNEQVDESYGLRETALNTIWNVVKSVLLASKVEPESYPKGIPASSYVNADVLAVIQAARETSMGNLSDEFETSMVITVMEDFANMIKQFGAIIIMDNGDSSMLEALCMQVLSVLKGTHTCQTIDIEEDVPRDEELDASETEATLQDVALEVLVSLSQALAGDFAKVFDNFRPVVFGLFQSKSKNKRSSAVGAASELALGMKEQNPFVHEMLEALVIRLTSDKSLEVRGNAAYGVGLLCEYASMDISAVYEPVLKALYELLSAADQKALAAEDDEATREIIDRAYANASGCVARMALKNSALVPLEQTVPALLAHLPLNTGFEEYNPIFELIMKLYQENSPVITNETPRIIEIFSAVFTKENDRIKLEKESTLGREENMERLKQFQTEEMKHKVIELLKYLNTTYNGIVAQNPVLAAVIA
Turning to B1, the binding entry is “binds”.
